{
  "sequences": {"note": "Protein sequences, listed by entry. Tags and fused reporters are not part of them. Lines headed by an entry give the natural chain unless they say otherwise; changes in a name come on top.", "UniProt A6NDG6": "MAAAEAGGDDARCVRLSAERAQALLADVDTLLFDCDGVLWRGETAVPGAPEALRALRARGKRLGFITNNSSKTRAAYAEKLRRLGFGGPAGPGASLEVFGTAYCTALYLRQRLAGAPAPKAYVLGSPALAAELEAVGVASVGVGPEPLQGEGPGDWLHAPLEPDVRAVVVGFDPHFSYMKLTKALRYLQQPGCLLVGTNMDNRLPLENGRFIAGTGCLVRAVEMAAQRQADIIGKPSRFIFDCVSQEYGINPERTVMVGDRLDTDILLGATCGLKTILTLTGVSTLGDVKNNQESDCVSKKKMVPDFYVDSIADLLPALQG", "UniProt Q9NQP4, whole entry, looked up": "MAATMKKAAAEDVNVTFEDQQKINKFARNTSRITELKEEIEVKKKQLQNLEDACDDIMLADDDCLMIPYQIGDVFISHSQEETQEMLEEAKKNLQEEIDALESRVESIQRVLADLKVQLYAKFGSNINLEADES", "UniProt Q4KWH8": "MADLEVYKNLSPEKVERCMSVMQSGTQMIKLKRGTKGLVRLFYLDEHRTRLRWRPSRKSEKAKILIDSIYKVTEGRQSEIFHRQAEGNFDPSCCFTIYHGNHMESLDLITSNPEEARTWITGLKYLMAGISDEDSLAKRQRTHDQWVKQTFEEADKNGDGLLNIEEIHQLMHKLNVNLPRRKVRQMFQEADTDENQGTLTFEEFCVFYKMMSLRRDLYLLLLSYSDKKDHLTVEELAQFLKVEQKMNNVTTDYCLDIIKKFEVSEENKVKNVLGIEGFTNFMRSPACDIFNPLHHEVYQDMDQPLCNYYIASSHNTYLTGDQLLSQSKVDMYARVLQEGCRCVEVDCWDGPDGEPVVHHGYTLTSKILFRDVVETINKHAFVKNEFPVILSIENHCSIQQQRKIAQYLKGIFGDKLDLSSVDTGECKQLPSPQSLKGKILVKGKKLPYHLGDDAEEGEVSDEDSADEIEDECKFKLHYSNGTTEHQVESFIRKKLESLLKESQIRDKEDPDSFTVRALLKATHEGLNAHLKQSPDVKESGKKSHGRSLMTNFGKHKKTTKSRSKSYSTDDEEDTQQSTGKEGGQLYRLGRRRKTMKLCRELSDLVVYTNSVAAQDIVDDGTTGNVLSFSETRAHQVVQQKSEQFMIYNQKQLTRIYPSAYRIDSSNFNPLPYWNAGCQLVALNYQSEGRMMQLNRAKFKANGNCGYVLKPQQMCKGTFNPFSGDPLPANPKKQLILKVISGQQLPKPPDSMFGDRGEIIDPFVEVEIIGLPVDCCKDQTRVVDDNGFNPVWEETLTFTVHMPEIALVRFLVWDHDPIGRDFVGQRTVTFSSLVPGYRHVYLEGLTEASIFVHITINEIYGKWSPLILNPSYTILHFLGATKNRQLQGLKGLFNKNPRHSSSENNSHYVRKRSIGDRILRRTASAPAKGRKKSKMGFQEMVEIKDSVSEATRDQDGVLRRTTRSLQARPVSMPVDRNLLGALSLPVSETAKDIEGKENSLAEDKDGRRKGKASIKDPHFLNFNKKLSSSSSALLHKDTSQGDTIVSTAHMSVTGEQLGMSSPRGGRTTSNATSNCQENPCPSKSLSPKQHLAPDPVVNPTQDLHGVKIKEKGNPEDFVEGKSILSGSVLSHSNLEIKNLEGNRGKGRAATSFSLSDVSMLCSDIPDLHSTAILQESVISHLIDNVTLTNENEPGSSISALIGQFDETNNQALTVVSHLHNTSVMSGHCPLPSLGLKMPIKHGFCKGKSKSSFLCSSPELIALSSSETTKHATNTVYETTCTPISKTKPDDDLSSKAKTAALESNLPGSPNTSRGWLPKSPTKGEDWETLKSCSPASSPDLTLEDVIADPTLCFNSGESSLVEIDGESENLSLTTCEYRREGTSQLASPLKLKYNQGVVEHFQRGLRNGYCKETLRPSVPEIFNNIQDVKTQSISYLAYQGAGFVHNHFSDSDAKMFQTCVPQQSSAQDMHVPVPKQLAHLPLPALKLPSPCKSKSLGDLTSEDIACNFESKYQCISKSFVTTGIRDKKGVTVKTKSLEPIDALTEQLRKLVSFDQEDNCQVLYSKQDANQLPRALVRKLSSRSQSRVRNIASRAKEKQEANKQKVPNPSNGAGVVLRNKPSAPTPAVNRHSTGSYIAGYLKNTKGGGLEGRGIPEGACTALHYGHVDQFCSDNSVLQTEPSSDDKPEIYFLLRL", "UniProt Q9NRX4": "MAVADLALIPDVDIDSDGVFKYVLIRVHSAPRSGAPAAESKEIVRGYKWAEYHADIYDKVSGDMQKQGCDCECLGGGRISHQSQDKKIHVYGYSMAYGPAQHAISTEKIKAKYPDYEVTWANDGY", "UniProt Q16877": "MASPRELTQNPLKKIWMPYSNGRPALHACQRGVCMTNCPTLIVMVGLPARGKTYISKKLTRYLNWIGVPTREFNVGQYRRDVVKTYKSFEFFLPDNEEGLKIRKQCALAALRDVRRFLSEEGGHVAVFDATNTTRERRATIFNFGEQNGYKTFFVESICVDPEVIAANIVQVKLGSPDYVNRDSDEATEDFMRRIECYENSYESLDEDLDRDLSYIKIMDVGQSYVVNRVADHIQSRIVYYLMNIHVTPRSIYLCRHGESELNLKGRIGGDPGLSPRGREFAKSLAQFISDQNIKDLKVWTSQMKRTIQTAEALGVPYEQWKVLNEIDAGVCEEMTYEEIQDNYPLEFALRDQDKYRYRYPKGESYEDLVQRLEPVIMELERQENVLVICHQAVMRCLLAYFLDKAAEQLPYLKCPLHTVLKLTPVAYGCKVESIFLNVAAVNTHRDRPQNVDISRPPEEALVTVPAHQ", "UniProt Q9UHV9, whole entry, looked up": "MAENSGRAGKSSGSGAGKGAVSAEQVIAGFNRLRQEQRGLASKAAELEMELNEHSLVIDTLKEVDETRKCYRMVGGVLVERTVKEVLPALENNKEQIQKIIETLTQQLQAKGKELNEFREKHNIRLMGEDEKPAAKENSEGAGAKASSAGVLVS", "UniProt Q8IWS0": "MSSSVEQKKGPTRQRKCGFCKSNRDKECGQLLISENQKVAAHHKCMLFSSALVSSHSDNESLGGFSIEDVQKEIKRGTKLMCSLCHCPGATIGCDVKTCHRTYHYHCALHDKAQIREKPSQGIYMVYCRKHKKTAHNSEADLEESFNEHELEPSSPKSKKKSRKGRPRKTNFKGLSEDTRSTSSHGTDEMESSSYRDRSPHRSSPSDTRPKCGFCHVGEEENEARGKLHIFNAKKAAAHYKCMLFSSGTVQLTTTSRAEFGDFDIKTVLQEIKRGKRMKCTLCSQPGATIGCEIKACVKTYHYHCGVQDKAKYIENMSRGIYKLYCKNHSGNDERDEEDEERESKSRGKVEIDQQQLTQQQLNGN", "UniProt Q92576, whole entry, looked up": "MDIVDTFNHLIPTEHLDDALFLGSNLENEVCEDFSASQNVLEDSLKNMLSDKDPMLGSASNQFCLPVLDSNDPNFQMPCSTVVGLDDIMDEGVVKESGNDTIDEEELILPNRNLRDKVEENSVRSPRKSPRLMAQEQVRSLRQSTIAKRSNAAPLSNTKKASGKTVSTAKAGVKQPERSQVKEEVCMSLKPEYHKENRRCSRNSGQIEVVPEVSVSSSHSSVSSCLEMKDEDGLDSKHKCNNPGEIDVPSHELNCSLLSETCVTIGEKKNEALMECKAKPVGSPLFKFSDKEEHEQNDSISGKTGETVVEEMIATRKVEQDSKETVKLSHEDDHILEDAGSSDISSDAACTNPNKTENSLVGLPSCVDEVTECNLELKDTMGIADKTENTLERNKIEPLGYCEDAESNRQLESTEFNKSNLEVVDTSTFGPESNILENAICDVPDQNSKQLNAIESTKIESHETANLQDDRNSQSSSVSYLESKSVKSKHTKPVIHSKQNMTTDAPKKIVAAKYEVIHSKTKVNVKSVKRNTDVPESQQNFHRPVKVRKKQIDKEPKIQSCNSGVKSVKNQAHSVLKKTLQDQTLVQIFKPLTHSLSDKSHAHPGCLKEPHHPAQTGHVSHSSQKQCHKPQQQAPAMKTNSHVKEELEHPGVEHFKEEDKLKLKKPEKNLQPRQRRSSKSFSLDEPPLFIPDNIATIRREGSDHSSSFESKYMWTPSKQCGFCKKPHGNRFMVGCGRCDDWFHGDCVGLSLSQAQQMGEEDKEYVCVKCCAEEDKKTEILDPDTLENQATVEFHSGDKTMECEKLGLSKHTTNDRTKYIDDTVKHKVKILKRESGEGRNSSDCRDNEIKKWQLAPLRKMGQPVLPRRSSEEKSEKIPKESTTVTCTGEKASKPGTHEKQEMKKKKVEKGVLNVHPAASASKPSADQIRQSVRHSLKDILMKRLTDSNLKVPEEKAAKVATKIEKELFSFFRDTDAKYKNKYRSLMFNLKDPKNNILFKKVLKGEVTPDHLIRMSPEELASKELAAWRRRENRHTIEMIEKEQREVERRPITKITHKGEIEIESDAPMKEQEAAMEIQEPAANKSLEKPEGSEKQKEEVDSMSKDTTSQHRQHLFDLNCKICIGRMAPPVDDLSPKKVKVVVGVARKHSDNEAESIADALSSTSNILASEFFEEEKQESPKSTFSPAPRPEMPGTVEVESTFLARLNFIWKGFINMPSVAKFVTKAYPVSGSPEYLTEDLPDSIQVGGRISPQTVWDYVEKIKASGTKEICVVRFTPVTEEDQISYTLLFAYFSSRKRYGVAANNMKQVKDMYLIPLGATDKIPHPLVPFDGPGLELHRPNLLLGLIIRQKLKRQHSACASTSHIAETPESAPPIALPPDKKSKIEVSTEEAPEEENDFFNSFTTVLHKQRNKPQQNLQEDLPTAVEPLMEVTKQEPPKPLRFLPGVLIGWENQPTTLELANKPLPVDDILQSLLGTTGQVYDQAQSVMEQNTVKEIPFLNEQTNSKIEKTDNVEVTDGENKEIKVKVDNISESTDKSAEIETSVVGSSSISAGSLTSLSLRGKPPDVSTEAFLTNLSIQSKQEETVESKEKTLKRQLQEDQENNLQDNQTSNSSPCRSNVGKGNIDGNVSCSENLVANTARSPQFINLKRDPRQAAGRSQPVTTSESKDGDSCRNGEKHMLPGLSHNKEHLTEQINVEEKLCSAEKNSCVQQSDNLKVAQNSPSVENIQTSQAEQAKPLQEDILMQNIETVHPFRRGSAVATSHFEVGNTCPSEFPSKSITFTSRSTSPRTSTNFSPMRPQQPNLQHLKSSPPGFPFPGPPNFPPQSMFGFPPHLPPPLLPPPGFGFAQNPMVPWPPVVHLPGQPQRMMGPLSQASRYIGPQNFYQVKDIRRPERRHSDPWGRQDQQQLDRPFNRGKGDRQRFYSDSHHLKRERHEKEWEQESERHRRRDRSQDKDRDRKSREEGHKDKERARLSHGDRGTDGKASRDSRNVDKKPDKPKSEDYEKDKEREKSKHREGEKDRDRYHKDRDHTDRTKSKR", "UniProt Q8IZ21": "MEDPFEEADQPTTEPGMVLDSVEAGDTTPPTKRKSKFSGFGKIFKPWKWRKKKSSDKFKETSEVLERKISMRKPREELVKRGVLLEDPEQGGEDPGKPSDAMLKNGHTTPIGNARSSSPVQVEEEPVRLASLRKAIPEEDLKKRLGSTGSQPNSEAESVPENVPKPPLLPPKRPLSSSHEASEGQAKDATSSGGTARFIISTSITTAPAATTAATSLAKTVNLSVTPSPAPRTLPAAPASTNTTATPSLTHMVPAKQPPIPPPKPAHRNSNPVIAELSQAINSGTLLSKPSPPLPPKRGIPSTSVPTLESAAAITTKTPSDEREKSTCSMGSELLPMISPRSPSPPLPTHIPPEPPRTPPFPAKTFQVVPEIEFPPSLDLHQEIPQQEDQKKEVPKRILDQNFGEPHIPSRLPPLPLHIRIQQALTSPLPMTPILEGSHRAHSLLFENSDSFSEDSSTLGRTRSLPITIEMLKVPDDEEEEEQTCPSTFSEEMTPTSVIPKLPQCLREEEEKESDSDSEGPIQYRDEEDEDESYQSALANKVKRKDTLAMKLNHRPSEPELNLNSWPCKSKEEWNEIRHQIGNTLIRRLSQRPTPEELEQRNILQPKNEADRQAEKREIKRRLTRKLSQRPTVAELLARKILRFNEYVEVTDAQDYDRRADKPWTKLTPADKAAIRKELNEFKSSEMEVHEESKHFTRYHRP", "UniProt Q32NB8": "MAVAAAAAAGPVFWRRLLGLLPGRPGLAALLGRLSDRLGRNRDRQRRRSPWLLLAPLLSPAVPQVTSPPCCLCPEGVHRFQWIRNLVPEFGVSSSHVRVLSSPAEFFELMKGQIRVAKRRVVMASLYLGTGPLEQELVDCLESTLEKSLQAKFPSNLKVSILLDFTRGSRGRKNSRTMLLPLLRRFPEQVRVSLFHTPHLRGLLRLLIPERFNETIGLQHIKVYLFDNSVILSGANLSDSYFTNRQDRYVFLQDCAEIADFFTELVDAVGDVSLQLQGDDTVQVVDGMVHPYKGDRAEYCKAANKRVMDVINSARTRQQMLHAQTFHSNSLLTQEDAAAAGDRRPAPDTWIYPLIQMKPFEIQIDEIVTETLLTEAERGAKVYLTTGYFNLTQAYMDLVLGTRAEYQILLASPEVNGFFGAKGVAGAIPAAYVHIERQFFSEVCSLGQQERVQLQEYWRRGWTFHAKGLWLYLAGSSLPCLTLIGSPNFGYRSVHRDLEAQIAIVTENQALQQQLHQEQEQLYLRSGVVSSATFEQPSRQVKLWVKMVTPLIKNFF"},
  "source": "the supplement of paper PMC10849652",
  "note": "This is one part of the list.",
  "data": [
    {"compound": "CNC(=O)c1ccc(Nc2ncc(C(F)(F)F)c(NCc3nccnc3N(C)S(C)(=O)=O)n2)cc1 [defactinib]", "experiment": "log2 fold change, soluble protein after heating vs DMSO (PISA); higher = thermal stabilisation; K562 cells, 10 uM, 30 min; active = over 0.2 and 3.5 SD of the protein, either way, in both replicates (recomputed)", "outline": "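K562 cells at 2×10^6 cells/mL were treated with 10 μM compound for 30 min. Aliquots were heated for 3 min across 48°C-58°C, pooled, and extracted in PBS with 0.5% NP-40 at 4°C; soluble protein was the supernatant after 21,000xg for 90 min. Soluble protein was quantified by TMTpro 16plex LC-MS/MS with channel sums equalised, and reported as log2 fold change in thermal stability against DMSO controls, with values from duplicates.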", "values": [
      {"target": "PIGW (UniProt Q7Z7B1)", "log2 fold change": "inactive: -0.053"},
      {"target": "PGP (UniProt A6NDG6)", "log2 fold change": "inactive: -0.037"},
      {"target": "PFKM isoform 3 (UniProt P08237)", "log2 fold change": "inactive: -0.018"},
      {"target": "PFKFB3 isoform 4 (UniProt Q16875)", "log2 fold change": "inactive: -0.075"},
      {"target": "PHB2 (UniProt Q99623)", "log2 fold change": "inactive: 0.01"},
      {"target": "PGM2 (UniProt Q96G03)", "log2 fold change": "inactive: -0.007"},
      {"target": "PIGBOS1, A0A0B4J2F0", "log2 fold change": "inactive: 0.012"},
      {"target": "PHACTR2 isoform 4 (UniProt O75167)", "log2 fold change": "inactive: -0.048"},
      {"target": "PKLR (UniProt P30613)", "log2 fold change": "inactive: -0.006"},
      {"target": "PHKB isoform 3 (UniProt Q93100)", "log2 fold change": "inactive: -0.015"},
      {"target": "PFDN4 (UniProt Q9NQP4)", "log2 fold change": "inactive: 0.045"},
      {"target": "PGM2L1 (UniProt Q6PCE3)", "log2 fold change": "inactive: -0.006"},
      {"target": "PHF19 isoform 2 (UniProt Q5T6S3)", "log2 fold change": "inactive: -0.09"},
      {"target": "PGAM1 (UniProt P18669)", "log2 fold change": "inactive: -0.014"},
      {"target": "PLCH1 (UniProt Q4KWH8)", "log2 fold change": "inactive: -0.019"},
      {"target": "PFKP (UniProt Q01813)", "log2 fold change": "inactive: -0.035"},
      {"target": "PHPT1 (UniProt Q9NRX4)", "log2 fold change": "inactive: -0.002"},
      {"target": "PHB (UniProt P35232)", "log2 fold change": "inactive: 0.015"},
      {"target": "PFKFB4 (UniProt Q16877)", "log2 fold change": "inactive: 0.012"},
      {"target": "PIK3R2 (UniProt O00459)", "log2 fold change": "inactive: -0.106"},
      {"target": "PFKL isoform 2 (UniProt P17858)", "log2 fold change": "inactive: -0.032"},
      {"target": "PFDN2 (UniProt Q9UHV9)", "log2 fold change": "inactive: -0.021"},
      {"target": "PHF6 (UniProt Q8IWS0)", "log2 fold change": "inactive: 0.144"},
      {"target": "PHF3 (UniProt Q92576)", "log2 fold change": "inactive: 0.281"},
      {"target": "PHACTR4 isoform 2 (UniProt Q8IZ21)", "log2 fold change": "inactive: -0.03"},
      {"target": "PEX6 (UniProt Q13608)", "log2 fold change": "inactive: -0.01"},
      {"target": "PLAA (UniProt Q9Y263)", "log2 fold change": "inactive: -0.059"},
      {"target": "PGS1 (UniProt Q32NB8)", "log2 fold change": "inactive: -0.199"},
      {"target": "PI4KA (UniProt P42356)", "log2 fold change": "inactive: -0.014"},
      {"target": "PITHD1 (UniProt Q9GZP4)", "log2 fold change": "inactive: -0.003"},
      {"target": "PLEC (UniProt Q15149)", "log2 fold change": "inactive: 0.037"}
    ]}
  ]
}
